# Measurements from PMC6044281.
# These are yes or no findings as the source states them, for the method shown. For part of these data: In cells and extracts the contact can be indirect. Some binding calls cover weakened binding; strength is not graded here. For part of these data: Sequences can lack the tags named with a protein.
# T1: mHOIL-1L WT (expressed in HEK293T HOIP KO cells) (mouse) (UniProt Q9WUB0)
# T1 sequence: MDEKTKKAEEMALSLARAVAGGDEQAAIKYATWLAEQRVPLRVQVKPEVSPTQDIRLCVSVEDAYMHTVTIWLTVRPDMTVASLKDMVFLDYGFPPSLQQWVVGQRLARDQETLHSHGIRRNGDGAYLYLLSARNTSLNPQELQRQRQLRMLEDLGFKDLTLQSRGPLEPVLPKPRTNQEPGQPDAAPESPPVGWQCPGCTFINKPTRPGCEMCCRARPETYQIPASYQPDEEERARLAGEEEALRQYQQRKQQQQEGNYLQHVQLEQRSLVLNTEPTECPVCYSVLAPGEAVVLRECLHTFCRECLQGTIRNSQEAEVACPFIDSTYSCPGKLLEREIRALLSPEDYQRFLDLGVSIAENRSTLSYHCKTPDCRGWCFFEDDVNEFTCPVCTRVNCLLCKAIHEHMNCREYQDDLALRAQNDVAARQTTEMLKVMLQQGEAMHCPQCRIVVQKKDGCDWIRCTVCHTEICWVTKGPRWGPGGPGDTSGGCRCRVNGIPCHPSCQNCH
# T2: human HOIL-1L WT (expressed in HEK293T HOIP KO cells) (human), Q9BYM8
# T2 chain: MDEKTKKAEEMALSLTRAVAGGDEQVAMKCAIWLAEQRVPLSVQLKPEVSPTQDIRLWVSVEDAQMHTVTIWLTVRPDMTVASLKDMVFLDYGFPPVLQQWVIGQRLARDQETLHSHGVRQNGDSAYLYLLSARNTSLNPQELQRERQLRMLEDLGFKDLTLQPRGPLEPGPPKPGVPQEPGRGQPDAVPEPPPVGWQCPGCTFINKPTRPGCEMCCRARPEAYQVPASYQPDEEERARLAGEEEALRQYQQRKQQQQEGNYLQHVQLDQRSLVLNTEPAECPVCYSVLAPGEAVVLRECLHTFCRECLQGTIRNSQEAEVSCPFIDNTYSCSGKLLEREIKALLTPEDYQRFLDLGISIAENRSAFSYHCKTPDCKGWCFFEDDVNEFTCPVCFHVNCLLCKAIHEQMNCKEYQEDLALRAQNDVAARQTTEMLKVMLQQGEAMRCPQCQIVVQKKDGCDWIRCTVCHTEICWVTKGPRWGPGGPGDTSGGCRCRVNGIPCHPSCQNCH
# T3: mHOIL-1L_(1–189)-strep (mouse) (UniProt Q9WUB0)
# T3 sequence: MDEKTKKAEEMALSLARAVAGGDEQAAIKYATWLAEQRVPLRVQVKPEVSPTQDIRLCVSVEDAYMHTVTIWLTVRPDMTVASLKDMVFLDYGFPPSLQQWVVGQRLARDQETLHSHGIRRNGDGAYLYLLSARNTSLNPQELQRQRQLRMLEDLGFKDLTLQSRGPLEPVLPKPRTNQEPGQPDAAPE
# Experiments:
# [1] = target: T1, mHOIL-1L WT (expressed in HEK293T HOIP KO cells) (mouse); experiment: co-IP; expression plasmids transfected into HEK293T HOIP KO cells; anti-FLAG immunoprecipitates immunoblotted
# [2] = target: T2, human HOIL-1L WT (expressed in HEK293T …); experiment: as above; conditions: remark: other sources report otherwise
# [3] = target: T3, mHOIL-1L_(1–189)-strep (mouse); experiment: SPR; mHOIL-1L_(1–189)-strep immobilised on the sensor chip with anti-strep antibody; MBP-mSHARPIN fragments as analytes; both purified
binder,measurement,setting,value
"mSHARPIN WT (expressed in HEK293T HOIP KO cells) (protein, UniProt Q91WA6 1-380) MSPPAGGAAVAADPASPVVLLAVHAAVRPLGAGQDAEAQPRKLQLIADPERPGRFRLGLLGTEPGAVSLEWPLEAICYTVRGPNQHELQPPPGGPGTFSVHFLDPEEAQQWAALVRDATAEGQNGSGSPAPAPAPAMCPISPPCSSMAQIPKATQPEVDLPQSSGNFKKEELATRLSQAIAGGDEKAAAQVAAVLAQHHVALNVQLMEAWFPPGPIRLQVTVEDATSVLSSSSSAHVSLKIHPHCSIAALQDQVFSEFGFPPAVQRWVIGRCLCMPERSLASYGVSQDGDPAFLYLLSAPREVSGQSLQNSKMDRKLGLFPQSLGLPHDLQPSSSSLPSPSQPGWSCPSCTFINASNRPGCEMCSTQRPCAWDPLAAAST",binding,[1],binds
"SHARPIN co-expressed with human HOIL-1L in HEK293T HOIP KO cells, Q9H0F6 1-387 (protein) MAPPAGGAAAAASDLGSAAVLLAVHAAVRPLGAGPDAEAQLRRLQLSADPERPGRFRLELLGAGPGAVNLEWPLESVSYTIRGPTQHELQPPPGGPGTLSLHFLNPQEAQRWAVLVRGATVEGQNGSKSNSPPALGPEACPVSLPSPPEASTLKGPPPEADLPRSPGNLTEREELAGSLARAIAGGDEKGAAQVAAVLAQHRVALSVQLQEACFPPGPIRLQVTLEDAASAASAASSAHVALQVHPHCTVAALQEQVFSELGFPPAVQRWVIGRCLCVPERSLASYGVRQDGDPAFLYLLSAPREAPATGPSPQHPQKMDGELGRLFPPSLGLPPGPQPAASSLPSPLQPSWSCPSCTFINAPDRPGCEMCSTQRPCTWDPLAAAST",binding,[2],binds
"MBP-mSHARPIN_(163–301) L176A/I180A (domain or fragment, UniProt Q91WA6 163-301) SSGNFKKEELATRASQAAAGGDEKAAAQVAAVLAQHHVALNVQLMEAWFPPGPIRLQVTVEDATSVLSSSSSAHVSLKIHPHCSIAALQDQVFSEFGFPPAVQRWVIGRCLCMPERSLASYGVSQDGDPAFLYLLSAPR",binding,[3],no binding (tested: 40 mM (as printed in the legend))
